# Source: PubChem BioAssay AID1508600 (Functional Genomics Laboratory (NCATS/FGL), 2020)
# The whole screen tested about 53,000 sequences, of which about 3,700 (7%) were called active.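 How the source made its calls: active means gene knockdowns whose robust z-score for IL-1 alpha signal is at least 2 or at most -2, so actives lie on both sides; inactive means the rest.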 The list shows a part of the results.
# Assay: Components of the Cytosolic LPS Sensing Pathway: Gene Identification via Genome-wide siRNA Screen;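 further: robust z of the log signal after scaling to non-targeting control siRNA wells of the plate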
# Conditions: RAW264.7 macrophages, IL-1a HTRF, actives lie on both sides, screened at 100 nM (by protocol), cells primed 5 h with Pam3CSK4 first
# How it was run: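 Using IL-1a HTRF as read-out, the screen measured release from RAW264.7 cells after 48h siRNA knockdown (100 nM), 5 h Pam3CSK4 priming and 24 h cytosolic LipidA. Values were expressed relative to negative-control wells as robust z-scores.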
row,Sequence,z-score
1,GGAAACAUCGCCUCAAACATT against Gjb4,inactive: -0.332
2,GCCCUGUUCCAAAUGUAACTT against BC061195,inactive: 0.255
3,CGUAGUCAUUACUCUAAUATT against Capns1,inactive: 0.892
4,GGAGCAUGAUCCUUCAUAATT against Armc12,inactive: 1.96
5,GGCCCUGGUAGCUUAUUACTT against Rps16,inactive: 0.762
6,GGAAGACUUUAUGUGCACCTT against Tbx4,inactive: -0.145
7,GGCUUUACACUGCUAGCUCTT against Fbxl2,inactive: -0.0512
8,GGCUAUUUCGAUGCUCUGGTT against Baiap2,inactive: -1.05
9,GGCUAUCACAGGGAUCCUATT against Ppl,inactive: -0.739
10,GGCGGUGUUUUACUACAAGTT against Capn7,active: 3.99
11,GCUCCAGCUUGCACUCUUGTT against Trp53i13,inactive: 1.36
12,GCUACGUUCAGUUCCAUUGTT against Eddm3b,inactive: -0.321
13,GGAGAAUUAGAAGUUUCUGTT against Ccdc40,inactive: -0.252
14,GCAGUACUAAGGAAGAUAUTT against Nudcd1,inactive: -0.842
15,GGAUUCCGUGCAUUUGUGATT against Atad3a,inactive: -0.113
16,GGAGAGCUCUGGAAGCUUUTT against Ppara,inactive: 0.913
17,CCACCUUGGUCUAAUUUCUTT against Slitrk4,active: -2.06
18,GCGGAAGGCACAGAUAGAATT against Ift74,inactive: 0.67
19,GGCAAAAGCACUGAAGAGATT against Ar,inactive: -0.63
20,GCUUGAUGAGAAAUCAACUTT against Map2,inactive: 0.345
21,CGUGGACUUAAUAUUUCAGTT against Btbd7,inactive: 0.685
22,GGACACAGCAAGAAGAUACTT against Wfdc12,inactive: -1.79
23,UGCAAAGAUUGUCUCCUCCTT against Olfr255,inactive: -0.0738

row,Sequence,z-score
1,GCUCAAUUCUGCAAGACAUTT against Olfr543,inactive: 1.44
2,CCUGUUGAGUACUGUGCUGTT against Olfr987,inactive: -0.437
3,GGAUCUGUGACUUUAACUUTT against Gm5105,inactive: 0.252
4,GGAGCAACUACAAACAUCUTT against Acss2,active: 2.35
5,CGUACCACGGAGGACUUAUTT against Dpf3,inactive: -1.35
6,GGAGAUUGUGCGCCGUAACTT against Casr,inactive: 0.262
7,CCCUGGGCAGUUUGCAUGUTT against Dgcr2,inactive: 0.815
8,AACCUCUCCUUCUUAGACATT against Olfr724,inactive: 0.814
9,GGUUGGCAAGUCCUUUUGUTT against Zfp759,inactive: -1.82
10,GGUGACUUGCUUUAGAAAATT against Tnfaip8l1,inactive: 0.184
11,GGGAGUAUGAUUUUGAGGATT against Iffo1,inactive: 0.303
12,GCGCAGUAUCCACUUCAAUTT against Pcsk7,inactive: -0.435
13,GGAAAUCCUGGGACAGAACTT against Htatip2,active: -2.42
14,GGCCAAAUACUGAAUAUUCTT against Ssb,inactive: 0.065
15,GGGCUCUGCGCUACUUAAATT against Zfp358,inactive: -0.643
16,GCAACAUUCCAGGGCUGAATT against Dnmt3l,inactive: 0.229
17,GGAGCUCUGAGGCUUAUAGTT against Prop1,inactive: -1.32
18,GGGAAGCAGUAUUUAAUCATT against Hc,inactive: 1.25
19,GGAAAAGCCGCACUUUAUATT against Mier2,inactive: 1.01
20,GCUACCACUUCUUUAAUAATT against Cdc73,inactive: -1.6
21,GGAGAUAAUUCAUUAUGGCTT against Zfpm2,inactive: 0.28
22,GGUCAAAGUUGGAAAUUGCTT against Acbd6,inactive: 1.33
23,GGAGUUGUGGAAUUCUCUATT against Extl2,inactive: -1.3

row,Sequence,z-score
1,GCUAAAGCUAAGAUUGAAGTT against Poli,inactive: -0.0266
2,GGAACUACAACAGAAACGATT against Cep131,inactive: -1.42
3,GCCAUCAAAGAAUAUGUUUTT against Sf3b3,inactive: -1.57
4,GGAUCUAAGGUGAACAAGATT against Rpl3,inactive: 0.472
5,GCAAUCUUUUAUACGUGCCTT against Cmtm1,inactive: -1.29
6,GGUGGGAAGAGGAAUACACTT against Iffo1,active: 4.73
7,GGUUUUUGAGUGGGAGACCTT against Khdc3,inactive: -0.578
8,GGGAUUUUGUCAUCUAUUCTT against Btf3l4,inactive: 0.401
9,GGCACUUUUUGGAAAAAACTT against Mkrn1,inactive: -1.78
10,GUAUUUGGGACUGAAUUGCTT against Maf,inactive: 0.643
11,CCAAAUGCAACAAAGGUAATT against Maob,inactive: -0.545
12,GGACUGGUCAGAGAUGGAUTT against Pced1a,active: 5.33
13,GGGUGUAGUUUUUGAGGAGTT against Pprc1,inactive: 0.708
14,GCAUCCUGGCUUAUCCAUUTT against Hmgb1,inactive: -0.393
15,GGUAAAUGUGAAUGUAAGGTT against Ntn4,inactive: 0.73
16,CCCUGAUUAAUGGUUCUAUTT against Sorl1,inactive: 1.7
17,GCUUCACUCUCUUCUUUGCTT against Olfr1463,active: -3.05
18,GGAGGAAGCUGAACUCUGGTT against Ehmt2,inactive: -0.655
19,CCCUAGCCAUAUGGAAUAUTT against 9130230L23Rik,inactive: 0.145
20,GGAAGAGGUUGAGAUCCAATT against Pogk,inactive: -0.655
21,GGAUGCCUUGAAGAAAUUATT against Olfr1044,inactive: 1.34
22,GGAUUUUUCUAAUCGCUUGTT against Zfp646,inactive: 0.343
23,GGAAGUUGACAAAAUAGUGTT against Dlgap5,inactive: 0.389

# Looked up one by one from the list above:
row,Sequence,z-score
8,GGGAUUUUGUCAUCUAUUCTT against Btf3l4,inactive: 0.401
1,GCUCAAUUCUGCAAGACAUTT against Olfr543,inactive: 1.44
10,GUAUUUGGGACUGAAUUGCTT against Maf,inactive: 0.643
21,CGUGGACUUAAUAUUUCAGTT against Btbd7,inactive: 0.685
21,GGAUGCCUUGAAGAAAUUATT against Olfr1044,inactive: 1.34
11,GGGAGUAUGAUUUUGAGGATT against Iffo1,inactive: 0.303
